# Whole data set: some 33,000 sequences, median “E-score (-0.5 to 0.5)” near -0.0059, cut for the highest 2% near 0.26. The list shows a part of the results.
# Molecular target: T1, Cin5 (UniProt P40917)
# T1 sequence: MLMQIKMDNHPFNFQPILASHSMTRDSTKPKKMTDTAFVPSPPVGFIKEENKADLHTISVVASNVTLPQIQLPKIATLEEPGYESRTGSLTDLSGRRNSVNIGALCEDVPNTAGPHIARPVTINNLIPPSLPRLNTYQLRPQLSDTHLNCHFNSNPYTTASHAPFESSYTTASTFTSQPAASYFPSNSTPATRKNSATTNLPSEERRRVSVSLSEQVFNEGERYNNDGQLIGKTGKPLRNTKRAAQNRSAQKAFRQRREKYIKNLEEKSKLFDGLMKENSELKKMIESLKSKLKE
# Test: PBM E-score (8-mer binding enrichment) (E-score (-0.5 to 0.5)); higher = stronger / more preferred TF binding
# Settings: protein concentration: 100 nM; construct: GST-full length
# Method: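 Universal 'all 10-mer' protein binding microarrays (Agilent AMADID 015681) probed with GST-tagged S. cerevisiae TFs (full-length or DBD) made by in vitro transcription/translation (PURExpress), about 100-200 nM. Bound TF was detected with fluorescent anti-GST. Each ungapped 8-mer (which stands for itself and its reverse complement) is scored by the PBM enrichment score (E-score), a modified Wilcoxon-Mann-Whitney statistic from -0.5 to +0.5, computed with the Universal PBM Analysis Suite. Scale: above 0.35 generally sequence-specific binding.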
row,Sequence,PBM E-score
1,TAGCGTGA,0.0415
2,TGGGTACA,-0.0384
3,GGGTAATA,0.122
4,ATCATTTG,0.156
5,CGATACGA,-0.172
6,GAAGTAGA,0.0964
7,ACAAGCAT,0.0402
8,ATGCTGAC,0.0871
9,CGATGCTC,-0.0947
10,TCACTGCA,0.142
11,TAAACGGA,0.154
12,AGCCACAG,-0.212
13,CCCCTACC,-0.0814
14,ACAAAAAG,0.103
15,CAATTCCA,0.0576
16,CGTTATGC,0.0541
17,CTTACTGA,0.176
18,CCCGATAG,-0.0593
19,ATCTACAC,0.108
20,CGGCCTAC,-0.0333
21,ACTTTGTA,-0.0203
22,GTGCACAA,-0.145
23,ATTGTCTG,0.133
24,ATGGTCGG,-0.0755
25,AGTACCGC,-0.0393

row,Sequence,PBM E-score
1,CAGAAAGC,0.0825
2,AAGTCCGT,-0.187
3,ACGTCGAA,-0.0427
4,GGTTTAAA,0.0618
5,CAATATAG,0.225
6,AGGCATAA,-0.0173
7,CTGCACTA,0.178
8,ACTAGGAC,-0.0324
9,AACTCTGA,0.182
10,AGATCTTG,-0.019
11,AACCAGAA,0.084
12,GAAAGTGA,0.0444
13,CTGCTAGC,-0.29
14,CTGAATTA,0.15
15,AAATTACT,0.227
16,AGCGCAAT,0.0704
17,CCGACCAC,-0.00291
18,TCACAGCA,0.0686
19,GAATTAGC,-0.0107
20,AACACACA,0.0624
21,TGCGCAAA,-0.0242
22,GAGATCAC,-0.0171
23,AGAAGTAC,-0.0322
24,AAAGTAAT,0.201
25,GCGGTACC,-0.0411

row,Sequence,PBM E-score
1,GTCGTGAA,-0.29
2,TGCCAGCA,-0.0807
3,ACCTCCGC,0.0474
4,CAGACCAA,-0.0126
5,CAAGGTTA,0.00409
6,AATAATTG,0.0887
7,CAAGCACA,-0.0819
8,CTTGTTCA,0.096
9,ATAACGAA,0.294
10,AAAGTATA,0.176
11,ACAGTGGG,-0.111
12,CCGTACGG,-0.323
13,AACGGCGG,-0.126
14,CAACAGGG,-0.0967
15,AGCGACCG,-0.00272
16,AGAATAAA,0.153
17,ACAGAGTG,0.0202
18,GACGGCTA,-0.0568
19,AGGGACAT,0.106
20,AATGATAT,0.226
21,GTGCCTAA,-0.136
22,TAAGAATA,-0.0126
23,ATGCGTCG,-0.0112
24,CATGCCCG,0.104
25,GCAAAATA,0.137

# Laid out differently: results already given
row | Sequence | PBM E-score
25 | GCGGTACC | -0.0411
1 | GTCGTGAA | -0.29
2 | TGCCAGCA | -0.0807
3 | ACCTCCGC | 0.0474
4 | CAGACCAA | -0.0126
5 | CAAGGTTA | 0.00409
6 | AATAATTG | 0.0887

# The list continues:

row,Sequence,PBM E-score
1,GCAATAGC,0.183
2,CTTCTTCA,-0.0149
3,GGTCGACC,0.217
4,CGCAATGA,0.101
5,ATCAGTAA,0.215
6,CATCATAA,0.139
7,AACGGCCC,-0.192
8,CCGTGGTA,-0.13
9,CCAGAAAA,0.136
10,CTAATGAC,-0.0506
11,CAGTAAAA,0.112
12,ATCGTGAA,-0.0335
13,ACGGTATC,0.0408
14,CCGATAGA,-0.056
15,CCTTTAGA,-0.24
16,CAACAACG,-0.0665
17,CCATGACA,0.0493
18,CTGCTGGA,-0.128
19,ATAAACTC,0.186
20,ACCTATTA,0.267
21,ACAAGCCA,-0.0348
22,CAGTATCG,-0.0427
23,ATTCATAA,0.147
24,CCGCACAG,-0.0131
25,CGGCAAGC,-0.103

row,Sequence,PBM E-score
1,CCCTGGCG,-0.112
2,AGGCAATG,0.00872
3,CTCGTGCC,-0.12
4,GACCTTAA,-0.0985
5,CTATATCC,0.181
6,AGGGTGAC,0.0387
7,ATATCCTC,0.192
8,CGACATTC,0.0145
9,AGAGTACT,-0.102
10,CAACTTGG,0.0918
11,AGGGTGAG,-0.157
12,GCCTCCCC,-0.122
13,CTCGTCGA,-0.037
14,AACTGAAT,-0.0709
15,GCAGACGC,-0.19
16,AAGGGGTC,-0.243
17,GAGGTACA,0.0674
18,CTATTCGC,0.128
19,GTAATCAA,0.392
20,AACTATCT,0.209
21,CCCCCTGC,-0.397
22,AGTCCTGC,-0.0878
23,CTGAGCAC,-0.151
24,AGTTTAGA,0.14
25,AAACACGT,-0.122

row,Sequence,PBM E-score
1,ACAAGTCG,-0.16
2,ACAGATCC,0.145
3,CCTATAAG,0.00639
4,AGGTGGAA,0.0494
5,AATCAATT,0.196
6,ATACGTCC,-0.114
7,AGCTAGCG,-0.17
8,AGGATACC,-0.0578
9,AGGCACTA,-0.186
10,CAAGCAAC,0.0396
11,ACCGAAGA,0.0871
12,CTCGGCAA,-0.058
13,AATTCTAG,0.00871
14,ATTGGCTA,0.112
15,GTAACGTA,0.129
16,CTTTATCC,-0.0117
17,GTGACCAA,0.0942
18,ATGATACG,0.215
19,CTCTGGCC,-0.234
20,AGAGTTGA,-0.0644
21,CATTTCTA,0.0634
22,AGATTTCG,0.134
23,ACCGGCCG,-0.101
24,TGTACCAA,0.0244
25,GAACCCAC,0.121

row,Sequence,PBM E-score
1,GACGGGAA,-0.0113
2,GAAGTCCC,-0.215
3,AGGTCCGG,-0.167
4,ACAGAACG,-0.0725
5,AAGTCCGC,-0.1
6,CTCCGCTA,-0.116
7,GCTACCGA,-0.0656
8,CGCCTGCC,-0.199
9,AGGATCCA,-0.0524
10,CCTCACCC,-0.0174
11,GCTCTCAC,-0.174
12,AAGCTCAT,0.0455
13,ATATCGTC,-0.00452
14,GCAAATCA,0.0394
15,AACGCTAC,-0.104
16,AACCTCTT,0.183
17,ACGCTGCA,-0.205
18,CCGAGAAC,0.0886
19,CGCTATCA,0.122
20,CAACCGTA,-0.263
21,AAATAGCG,0.0384
22,GGATCGAA,-0.0487

# Source: the supplement of paper PMC3334620
